Measured values: PMC9585016
These are yes or no findings as the source states them, for the method shown. In cells and extracts the contact can be indirect. Some results given as binding are weak or reduced against the parent protein; the word gives no strength.

Chains of the proteins cited; added tags and fusions are not shown.
UniProt Q9DBG3: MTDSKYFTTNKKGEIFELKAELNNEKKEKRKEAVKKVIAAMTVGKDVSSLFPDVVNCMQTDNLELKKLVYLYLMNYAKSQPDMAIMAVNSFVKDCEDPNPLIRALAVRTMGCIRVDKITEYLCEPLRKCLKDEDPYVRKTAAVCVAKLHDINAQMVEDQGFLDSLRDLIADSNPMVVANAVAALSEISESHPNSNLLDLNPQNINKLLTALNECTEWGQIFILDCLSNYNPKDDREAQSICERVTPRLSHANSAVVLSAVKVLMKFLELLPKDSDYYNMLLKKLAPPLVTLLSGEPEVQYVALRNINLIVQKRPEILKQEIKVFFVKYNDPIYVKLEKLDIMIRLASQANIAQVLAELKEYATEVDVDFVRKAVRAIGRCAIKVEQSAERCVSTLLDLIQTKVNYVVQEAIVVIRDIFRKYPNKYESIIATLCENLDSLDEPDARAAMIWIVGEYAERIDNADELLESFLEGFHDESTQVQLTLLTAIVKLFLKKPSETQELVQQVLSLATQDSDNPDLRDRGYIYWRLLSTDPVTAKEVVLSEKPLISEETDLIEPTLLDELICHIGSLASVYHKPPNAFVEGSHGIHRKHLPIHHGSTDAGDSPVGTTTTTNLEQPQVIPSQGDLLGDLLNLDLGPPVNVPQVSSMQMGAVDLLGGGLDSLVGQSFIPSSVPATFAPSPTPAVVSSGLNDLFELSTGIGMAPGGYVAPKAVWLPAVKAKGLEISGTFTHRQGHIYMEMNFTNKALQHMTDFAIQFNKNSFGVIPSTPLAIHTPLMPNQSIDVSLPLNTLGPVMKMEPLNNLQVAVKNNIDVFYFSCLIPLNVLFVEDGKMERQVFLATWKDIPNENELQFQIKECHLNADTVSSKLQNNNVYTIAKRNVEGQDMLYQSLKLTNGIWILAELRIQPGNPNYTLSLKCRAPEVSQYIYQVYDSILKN
UniProt P18760: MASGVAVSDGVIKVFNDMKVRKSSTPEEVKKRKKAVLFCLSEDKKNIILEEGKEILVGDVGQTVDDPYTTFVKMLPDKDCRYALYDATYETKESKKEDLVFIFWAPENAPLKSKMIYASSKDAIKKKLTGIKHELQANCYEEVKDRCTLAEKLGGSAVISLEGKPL
UniProt P45592: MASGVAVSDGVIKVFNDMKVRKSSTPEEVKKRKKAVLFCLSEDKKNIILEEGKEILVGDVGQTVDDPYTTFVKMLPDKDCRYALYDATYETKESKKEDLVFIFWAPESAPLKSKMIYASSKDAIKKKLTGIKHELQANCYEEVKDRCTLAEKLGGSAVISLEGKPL

Assays:
[1] = target: β2-adaptin subunit of adaptor protein 2 (AP2), endogenous in mouse hippocampus (mouse (endogenous in hippocampus)) (UniProt Q9DBG3); test: co-IP; mouse hippocampal homogenate (50 ug) in RIPA buffer (200 mM NaCl, 10 mM EDTA, 0.5% NP-40, 0.1% SDS); precipitated with mouse monoclonal CAP1 antibody or β2-adaptin antibody on Protein A magnetic beads; blotted for cofilin1, CAP1, β2-adaptin
[2] = target: T1, CAP1, endogenous in rat hippocampal neurons (rat (endogenous in primary hippocampal neurons)) (UniProt Q08163); test: proximity ligation; Duolink PLA on fixed, permeabilised DIV15 rat primary hippocampal neurons with antibodies against endogenous CAP1 and cofilin1; single antibodies as controls
T1 sequence: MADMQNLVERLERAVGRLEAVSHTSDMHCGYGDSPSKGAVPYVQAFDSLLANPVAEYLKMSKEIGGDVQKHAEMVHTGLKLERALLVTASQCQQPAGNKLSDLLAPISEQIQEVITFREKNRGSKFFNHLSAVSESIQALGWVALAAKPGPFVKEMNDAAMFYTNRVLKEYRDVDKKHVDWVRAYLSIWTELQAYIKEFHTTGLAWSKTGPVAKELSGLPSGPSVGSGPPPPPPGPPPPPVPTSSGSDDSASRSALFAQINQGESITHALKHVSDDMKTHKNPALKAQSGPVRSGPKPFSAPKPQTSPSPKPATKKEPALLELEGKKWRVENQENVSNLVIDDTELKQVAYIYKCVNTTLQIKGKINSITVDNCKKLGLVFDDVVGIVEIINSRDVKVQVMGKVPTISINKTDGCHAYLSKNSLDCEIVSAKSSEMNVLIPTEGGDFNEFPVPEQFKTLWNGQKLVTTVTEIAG

binding [1]	binding [2]	Substance
no binding	–	cofilin1, endogenous in mouse hippocampus (from UniProt P18760 1-166)
–	binds	cofilin1, endogenous in rat hippocampal neurons (from UniProt P45592 1-166)
